Measured values taken from paper PMC12802923.
These are yes or no findings as the source states them, for the method shown. Binding seen in cells or lysates may run through a third protein. Some binding calls cover weakened binding; strength is not graded here. Where a sequence is shown, tags or fusion partners need not be part of it.

Assays:
[1] = target: T1, Cdk-counteracting phosphatase Cdc14, 6HA-tagged (CDC14-6HA) (S. cerevisiae) (UniProt Q00684); assay: co-IP; Cdc14-HA immunoprecipitated with anti-HA magnetic beads (2 h, 4°C, NP-40 buffer) from cells at the metaphase arrest (cdc20 arrest, CDC20-AID); Top2-9PK analysed in the precipitate
T1 sequence: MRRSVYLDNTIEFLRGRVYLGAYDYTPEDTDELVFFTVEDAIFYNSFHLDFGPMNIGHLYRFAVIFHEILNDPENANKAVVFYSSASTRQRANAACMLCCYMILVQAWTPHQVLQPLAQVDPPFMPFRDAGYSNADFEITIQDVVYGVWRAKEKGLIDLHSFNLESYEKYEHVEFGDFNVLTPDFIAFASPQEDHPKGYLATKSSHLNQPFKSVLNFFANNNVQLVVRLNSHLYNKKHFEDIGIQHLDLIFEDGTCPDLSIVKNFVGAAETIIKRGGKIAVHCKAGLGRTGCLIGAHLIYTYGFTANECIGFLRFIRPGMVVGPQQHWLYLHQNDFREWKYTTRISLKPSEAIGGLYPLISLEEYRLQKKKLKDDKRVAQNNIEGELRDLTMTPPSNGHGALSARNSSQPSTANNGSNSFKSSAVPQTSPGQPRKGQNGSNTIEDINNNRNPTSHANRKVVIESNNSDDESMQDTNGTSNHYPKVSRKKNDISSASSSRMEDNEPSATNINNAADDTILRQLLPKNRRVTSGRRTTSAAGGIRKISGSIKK

[2] = target: T2, Polo-like kinase Cdc5, 3HA-tagged (GAL-3HACDC5) (S. cerevisiae) (UniProt P32562); assay: co-IP; Cdc5-HA immunoprecipitated with anti-HA magnetic beads (2 h, 4°C, NP-40 buffer) from cells arrested in metaphase (cdc20 arrest, CDC20-AID) after galactose induction of Cdc5; Top2-9PK analysed in the precipitate
T2 sequence: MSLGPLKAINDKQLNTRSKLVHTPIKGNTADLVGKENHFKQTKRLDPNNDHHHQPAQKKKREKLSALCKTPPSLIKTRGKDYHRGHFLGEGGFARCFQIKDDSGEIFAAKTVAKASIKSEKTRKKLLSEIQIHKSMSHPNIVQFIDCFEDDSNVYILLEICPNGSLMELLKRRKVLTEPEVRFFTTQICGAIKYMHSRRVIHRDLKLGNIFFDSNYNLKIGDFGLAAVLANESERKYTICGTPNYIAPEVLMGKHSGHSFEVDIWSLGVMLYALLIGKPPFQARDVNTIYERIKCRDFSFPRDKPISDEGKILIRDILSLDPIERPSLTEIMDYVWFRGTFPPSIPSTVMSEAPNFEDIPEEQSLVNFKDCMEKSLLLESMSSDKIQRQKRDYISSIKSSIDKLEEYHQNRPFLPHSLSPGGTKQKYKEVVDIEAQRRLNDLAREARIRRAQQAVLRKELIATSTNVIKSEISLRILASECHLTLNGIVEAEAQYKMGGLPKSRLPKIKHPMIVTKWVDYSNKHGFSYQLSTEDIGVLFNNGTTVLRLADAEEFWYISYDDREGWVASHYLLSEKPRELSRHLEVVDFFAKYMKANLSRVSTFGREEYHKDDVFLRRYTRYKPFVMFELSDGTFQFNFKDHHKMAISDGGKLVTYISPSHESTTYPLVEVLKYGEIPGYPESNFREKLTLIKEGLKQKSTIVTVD

[3] = target: T1, Cdk-counteracting phosphatase Cdc14, 6HA-tagged (CDC14-6HA) (S. cerevisiae); assay: co-IP; Cdc14-HA immunoprecipitated with anti-HA magnetic beads (2 h, 4°C, NP-40 buffer) from cells 45 min after release from the metaphase block, when 80% cells are in early anaphase; Top2-9PK analysed in the precipitate

- binding [1]: binds weakly
- binding [2]: binds
- binding [3]: binds
B1: Topoisomerase II (Top2), TOP2-9PK fusion (enzyme, UniProt P06786 1-1428)
chain: MSTEPVSASDKYQKISQLEHILKRPDTYIGSVETQEQLQWIYDEETDCMIEKNVTIVPGLFKIFDEILVNAADNKVRDPSMKRIDVNIHAEEHTIEVKNDGKGIPIEIHNKENIYIPEMIFGHLLTSSNYDDDEKKVTGGRNGYGAKLCNIFSTEFILETADLNVGQKYVQKWENNMSICHPPKITSYKKGPSYTKVTFKPDLTRFGMKELDNDILGVMRRRVYDINGSVRDINVYLNGKSLKIRNFKNYVELYLKSLEKKRQLDNGEDGAAKSDIPTILYERINNRWEVAFAVSDISFQQISFVNSIATTMGGTHVNYITDQIVKKISEILKKKKKKSVKSFQIKNNMFIFINCLIENPAFTSQTKEQLTTRVKDFGSRCEIPLEYINKIMKTDLATRMFEIADANEENALKKSDGTRKSRITNYPKLEDANKAGTKEGYKCTLVLTEGDSALSLAVAGLAVVGRDYYGCYPLRGKMLNVREASADQILKNAEIQAIKKIMGLQHRKKYEDTKSLRYGHLMIMTDQDHDGSHIKGLIINFLESSFPGLLDIQGFLLEFITPIIKVSITKPTKNTIAFYNMPDYEKWREEESHKFTWKQKYYKGLGTSLAQEVREYFSNLDRHLKIFHSLQGNDKDYIDLAFSKKKADDRKEWLRQYEPGTVLDPTLKEIPISDFINKELILFSLADNIRSIPNVLDGFKPGQRKVLYGCFKKNLKSELKVAQLAPYVSECTAYHHGEQSLAQTIIGLAQNFVGSNNIYLLLPNGAFGTRATGGKDAAAARYIYTELNKLTRKIFHPADDPLYKYIQEDEKTVEPEWYLPILPMILVNGAEGIGTGWSTYIPPFNPLEIIKNIRHLMNDEELEQMHPWFRGWTGTIEEIEPLRYRMYGRIEQIGDNVLEITELPARTWTSTIKEYLLLGLSGNDKIKPWIKDMEEQHDDNIKFIITLSPEEMAKTRKIGFYERFKLISPISLMNMVAFDPHGKIKKYNSVNEILSEFYYVRLEYYQKRKDHMSERLQWEVEKYSFQVKFIKMIIEKELTVTNKPRNAIIQELENLGFPRFNKEGKPYYGSPNDEIAEQINDVKGATSDEEDEESSHEDTENVINGPEELYGTYEYLLGMRIWSLTKERYQKLLKQKQEKETELENLLKLSAKDIWNTDLKAFEVGYQEFLQRDAEARGGNVPNKGSKTKGKGKRKLVDDEDYDPSKKNKKSTARKGKKIKLEDKNFERILLEQKLVTKSKAPTKIKKEKTPSVSETKTEEEENAPSSTSSSSIFDIKKEDKDEGELSKISNKFKKISTIFDKMGSTSATSKENTPEQDDVATKKNQTTAKKTAVKPKLAKKPVRKQQKVVELSGESDLEILDSYTDREDSNKDEDDAIPQRSRRQRSSRAASVPKKSYVETLELSDDSFIEDDEEENQGSDVSFNEED
